Publication PMC7819943, “Rice protein-binding microarrays: a tool to detect cis-acting elements near promoter regions in rice”
Some of the results follow.

molecular target: T1, OsSMF1 (Oryza sativa, UniProt Q6ZLB0 1-436); assay: protein-binding microarray (RPBM); PBS, 2% BSA, 51.3 ng/ul salmon testes DNA, 50 uM zinc acetate, 200 nM TF, 25 C, 1 h; high values mean tight binding; conditions: protein: recombinant; tags: N-terminal polyhistidine and DsRed monomer fusion (pET32a); chain copies: 2; label: CyDye5-dUTP incorporated in the synthesized complementary strand; 3' TTTTT single-stranded linker to array surface; dsDNA, one strand shown
T1 sequence: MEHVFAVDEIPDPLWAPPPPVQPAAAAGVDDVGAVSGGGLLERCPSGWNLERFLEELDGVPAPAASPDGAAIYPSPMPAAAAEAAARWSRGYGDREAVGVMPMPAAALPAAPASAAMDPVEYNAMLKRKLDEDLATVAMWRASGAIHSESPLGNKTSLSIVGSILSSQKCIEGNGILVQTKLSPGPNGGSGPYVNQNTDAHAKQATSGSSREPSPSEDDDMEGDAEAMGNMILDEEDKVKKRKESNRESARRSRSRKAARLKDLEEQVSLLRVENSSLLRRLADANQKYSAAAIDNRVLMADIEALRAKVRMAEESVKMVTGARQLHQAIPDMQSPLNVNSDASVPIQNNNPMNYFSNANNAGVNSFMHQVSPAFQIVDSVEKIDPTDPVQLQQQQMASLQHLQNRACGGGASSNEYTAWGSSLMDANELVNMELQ
Procedure, shortened: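 The binding signal is fluorescence intensity per array feature (arbitrary units). Readings came from an Axon 4000B scanner after a washed, 2% BSA-blocked, double-stranded custom Agilent array had been incubated for 1 h at 25 °C with 200 nM protein and 50 µM zinc acetate. The protein was a Ni–NTA-purified transcription factor fused N-terminally to polyhistidine and DsRed, expressed in E. coli BL21-CodonPlus.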

Row | Sequence | binding signal
1 | AGTACTCTTCACTGTCTCCATGGAAGTTGTAGGCCTGTTGCGGAGTCACCTAGTGCAG | 3320 fluorescence intensity (a.u.)
2 | CATAGATAAAAGAGTAAAACATCTTACTGCCAGCTTCACCCGGAGTCACCTAGTGCAG | 21200 fluorescence intensity (a.u.)
3 | ATAATCCCCGACACATAAGCACTCATAGAGTACTACAAACCGGAGTCACCTAGTGCAG | 3920 fluorescence intensity (a.u.)
4 | TCGGTGTTTCCAGTTTCCATCAACCGTAAGCGTGTCATTCCGGAGTCACCTAGTGCAG | 4000 fluorescence intensity (a.u.)
5 | GTTCTTTCTCCTGCCTAGCTAGCTACTCCCAGTTGTTTGCCGGAGTCACCTAGTGCAG | 26600 fluorescence intensity (a.u.)
6 | CGGATCCCCGATCGGACGGTCCACGTTGCCCCGTCGCCCTCGGAGTCACCTAGTGCAG | 7610 fluorescence intensity (a.u.)
7 | TTTGTGACTCCACATCACAGCATGCCTCAGCAGCTACCTCCGGAGTCACCTAGTGCAG | 4000 fluorescence intensity (a.u.)
8 | AATTTCAGTACTCAGTTCATTAAATTAATTAAAGAAAGGCCGGAGTCACCTAGTGCAG | 51100 fluorescence intensity (a.u.)
9 | TTTCTTCTTGTTTCTTAGTCAGCGTCAGTTATCAAGCTATCGGAGTCACCTAGTGCAG | 6580 fluorescence intensity (a.u.)
10 | CGCCTTGCCGTTCCTTCCCCTCCTCGTCATCACTAGGGTTCGGAGTCACCTAGTGCAG | 8160 fluorescence intensity (a.u.)
11 | GAGATTTTGGTTAAATGTGACACATCTAGTATAATGAATCCGGAGTCACCTAGTGCAG | 3730 fluorescence intensity (a.u.)
12 | TGAAAATTTTGGTAGGATAAATAGAAGACCAGCTCCCTCTCGGAGTCACCTAGTGCAG | 4220 fluorescence intensity (a.u.)
13 | GGAGCATATTACTCGGTACTATGAATTATGATGACACTTGCGGAGTCACCTAGTGCAG | 4220 fluorescence intensity (a.u.)
14 | ATGTGGCACACACGTGGCGTCGCAACCCGGTCGCGTCCAACGGAGTCACCTAGTGCAG | 12200 fluorescence intensity (a.u.)
15 | CGCCCCTCCCATCCTCTACACGTACGGTTACACAAATCCACGGAGTCACCTAGTGCAG | 3960 fluorescence intensity (a.u.)
16 | GCCGATGCCGGCCTAGCCCTCCGCGTGGCATTCCGTCCCCCGGAGTCACCTAGTGCAG | 6450 fluorescence intensity (a.u.)
17 | CGCGCCATCTCCATGTCATCGTCGTCGTCTGTGTCCCCTTCGGAGTCACCTAGTGCAG | 7760 fluorescence intensity (a.u.)
18 | ACTGATCAGCTCCTATATTGTACCGTAACAATCCATGTCACGGAGTCACCTAGTGCAG | 3570 fluorescence intensity (a.u.)
19 | TTTCTGCGGATTTGCAAACCTTAAACTGCTTGCTCTTGACCGGAGTCACCTAGTGCAG | 3400 fluorescence intensity (a.u.)
20 | ATGTCTTTTATCTGTACAATAAGTGTGCCTTATTTTACCACGGAGTCACCTAGTGCAG | 3330 fluorescence intensity (a.u.)
21 | ACGTCTGTTTAGATTTGTTATACTGGAATATGTCACATCTCGGAGTCACCTAGTGCAG | 32200 fluorescence intensity (a.u.)

Row | Sequence | binding signal
22 | TATATATATATATACCCCTGAGACTCAATACAACGTGTCCCGGAGTCACCTAGTGCAG | 4300 fluorescence intensity (a.u.)
23 | CCGAGCTCGCCGTCGCCCCGTCACGCCAGCCGCCTCTTCCCGGAGTCACCTAGTGCAG | 4260 fluorescence intensity (a.u.)
24 | TTCTCTCGTGTCTCCGCCACCGCATCGTCGGCCGCCTGTCCGGAGTCACCTAGTGCAG | 5720 fluorescence intensity (a.u.)
25 | CCCTGTAGAAAGTAAAATGACATGCGGGGTCAGAAGTTTCCGGAGTCACCTAGTGCAG | 3910 fluorescence intensity (a.u.)
26 | ACCTGCCCAACCCCAACCCCAACCCTCTCCTCTCCGCCCACGGAGTCACCTAGTGCAG | 3710 fluorescence intensity (a.u.)
27 | AAACAGTGCACAAATGCCCATGTAGATGATGATTTATTAACGGAGTCACCTAGTGCAG | 35100 fluorescence intensity (a.u.)
28 | CTCCTCCGCCGCCGCCGCTCCCAGCCTGCACGCCGGCCGCCGGAGTCACCTAGTGCAG | 26200 fluorescence intensity (a.u.)
29 | TTGAAGCCACCGCGGGCGACGCTGACGCATGACGCTCCGGCGGAGTCACCTAGTGCAG | 7270 fluorescence intensity (a.u.)
30 | GCGGTGCGTCGACTGGCAGAGGAGGCTGACGTCATCGCCACGGAGTCACCTAGTGCAG | 19700 fluorescence intensity (a.u.)
31 | ATTTTCTAGACTATGATAATGCTTATGTGTCAATTCATTTCGGAGTCACCTAGTGCAG | 5800 fluorescence intensity (a.u.)
32 | CACAAGTCTCCCATGTCGCCGCCGTCTCGGCGACCACCCCCGGAGTCACCTAGTGCAG | 4410 fluorescence intensity (a.u.)
33 | TGCAGACTGCATTGTCATGCAGGCCTTACATATAGGGTCACGGAGTCACCTAGTGCAG | 3650 fluorescence intensity (a.u.)
34 | CGATGAAGCGAGGCATGAGGTTGACGACGATGAGGGGAGGCGGAGTCACCTAGTGCAG | 3230 fluorescence intensity (a.u.)
35 | GCCTAGCCAGGATCGCCGCCGGCGGCGCCGCCGAGTCACACGGAGTCACCTAGTGCAG | 33100 fluorescence intensity (a.u.)
36 | TTAAGTAGCTACATCTGCTTCAAGAGAGTCTCCCACTTCTCGGAGTCACCTAGTGCAG | 3310 fluorescence intensity (a.u.)
37 | TGCGCCGCCGCCGCCGCCGCCGCTGCGGCGTGCATCCGCCCGGAGTCACCTAGTGCAG | 37400 fluorescence intensity (a.u.)
38 | ATATGGTACTCTACCAAGTTAGCTTCACGAGTTGATTCCACGGAGTCACCTAGTGCAG | 6570 fluorescence intensity (a.u.)
39 | TGAAACCGATTCGGCACCGATACGCTACGCGCGCACGGCCCGGAGTCACCTAGTGCAG | 20600 fluorescence intensity (a.u.)
40 | TACAGGAGCGATAGGCTCCGCGGCGTTCGTCGCCGAAACTCGGAGTCACCTAGTGCAG | 27500 fluorescence intensity (a.u.)
41 | CGAGGCTTCCACTCCGCCACCGCCACCGCCACCGCCGCGCCGGAGTCACCTAGTGCAG | 4160 fluorescence intensity (a.u.)
42 | TCGAGTGGTGGCAGCCCATATATGACTTGGCCACTTGTCCCGGAGTCACCTAGTGCAG | 6500 fluorescence intensity (a.u.)

Look-ups from the list.
binding signal, TACAGGAGCGATAGGCTCCGCGGCGTTCGTCGCCGAAACTCGGAGTCACCTAGTGCAG reads 27500 fluorescence intensity (a.u.)
binding signal, GCCTAGCCAGGATCGCCGCCGGCGGCGCCGCCGAGTCACACGGAGTCACCTAGTGCAG reads 33100 fluorescence intensity (a.u.)
